Values from PubChem BioAssay AID1259254 (NCATS, 2017)

Test: 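Finding genes that stop cells copying their DNA twice in one cycle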 (primary screen)
Cell system: human HCT116 colorectal cancer cells
Knock-down reagent: single siRNA against human genes
Timing: 3 days
Measurement: 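Imaged Hoechst DNA stain sorts each cell into a cycle phase by DNA amount; per plate, G2 fraction set to 0% for non-targeting and 100% for GMNN siRNA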
Direction: G2 robust z-score and G2 cells, % of GMNN control: higher = more G2 cells, more excess DNA replication; raw share of cells in G2: higher = larger share of cells with G2 DNA content
Hit rule: 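An siRNA counts as active if its G2 robust z-score lies at least 5 MADs above the screen median; here such calls match roughly 38% of GMNN control or more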
The deposit covers about 59,000 reagents; below is an unselected part. Of all reagents, about 1,550 (2.6%) got an active call. 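G2 share is only a proxy for re-replication; each gene was hit by three separate siRNAs, and active genes were retested.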 Raw values vary from plate to plate and are shown uncorrected. Reagents against one gene are numbered here. Not stated in the record: the amount of reagent.

| Target gene | reagent | G2 robust z-score | G2 cells, % of GMNN control | raw share of cells in G2 (%) | Call |
| --- | --- | --- | --- | --- | --- |
| BMPR1A (GeneID 657) | 1 | 0.217 | 4.5 | 7.09 | inactive |
| BMPR1A (GeneID 657) | 2 | -0.518 | -0.68 | 5.18 | inactive |
| BMPR1A (GeneID 657) | 3 | 0.631 | 7.41 | 6.64 | inactive |
| ARL13B (GeneID 200894) | 1 | -0.825 | -2.84 | 2.59 | inactive |
| ARL13B (GeneID 200894) | 2 | 0.664 | 7.64 | 5.52 | inactive |
| ARL13B (GeneID 200894) | 3 | -0.253 | 1.19 | 3.14 | inactive |
| PTBP3 (GeneID 9991) | 1 | 0.433 | 6.02 | 7.48 | inactive |
| PTBP3 (GeneID 9991) | 2 | -0.592 | -1.2 | 4.27 | inactive |
| PTBP3 (GeneID 9991) | 3 | 1.89 | 16.3 | 8.76 | inactive |
| IER3IP1 (GeneID 51124) | 1 | 0.778 | 8.44 | 7.08 | inactive |
| IER3IP1 (GeneID 51124) | 2 | -0.603 | -1.28 | 4.07 | inactive |
| IER3IP1 (GeneID 51124) | 3 | 3.68 | 28.8 | 12.3 | inactive |
| TCAIM (GeneID 285343) | 1 | 0.982 | 9.87 | 6.27 | inactive |
| TCAIM (GeneID 285343) | 2 | 0.262 | 4.81 | 5.4 | inactive |
| TCAIM (GeneID 285343) | 3 | 0.105 | 3.71 | 4.48 | inactive |
| ENPP2 (GeneID 5168) | 1 | -0.468 | -0.325 | 4.69 | inactive |
| ENPP2 (GeneID 5168) | 2 | -1.26 | -5.91 | 2.52 | inactive |
| ENPP2 (GeneID 5168) | 3 | 0.916 | 9.41 | 6.33 | inactive |
| PLA2G5 (GeneID 5322) | 1 | 0.3 | 5.08 | 6.45 | inactive |
| PLA2G5 (GeneID 5322) | 2 | -0.435 | -0.0928 | 4.28 | inactive |
| PLA2G5 (GeneID 5322) | 3 | 0.362 | 5.51 | 5.16 | inactive |
| FHIP2B (GeneID 64760) | 1 | -0.561 | -0.979 | 2.44 | inactive |
| FHIP2B (GeneID 64760) | 2 | -0.452 | -0.211 | 4.49 | inactive |
| FHIP2B (GeneID 64760) | 3 | 3.62 | 28.4 | 17.4 | inactive |
| PCP4 (GeneID 5121) | 1 | 0.855 | 8.98 | 8.79 | inactive |
| PCP4 (GeneID 5121) | 2 | 1.19 | 11.3 | 8.7 | inactive |
| PCP4 (GeneID 5121) | 3 | -1.15 | -5.12 | 1.5 | inactive |
| C1QTNF12 (GeneID 388581) | 1 | 0.47 | 6.27 | 5.92 | inactive |
| C1QTNF12 (GeneID 388581) | 2 | 2.02 | 17.2 | 10.9 | inactive |
| C1QTNF12 (GeneID 388581) | 3 | 1.5 | 13.5 | 10.4 | inactive |
| JDP2 (GeneID 122953) | 1 | 1.52 | 13.7 | 9.64 | inactive |
| JDP2 (GeneID 122953) | 2 | -0.408 | 0.0996 | 5.72 | inactive |
| JDP2 (GeneID 122953) | 3 | 2.9 | 23.3 | 15 | inactive |
| ACRV1 (GeneID 56) | 1 | 1.04 | 10.3 | 7.54 | inactive |
| ACRV1 (GeneID 56) | 2 | 0.64 | 7.47 | 8.8 | inactive |
| ACRV1 (GeneID 56) | 3 | -1.31 | -6.27 | 1.79 | inactive |
| CCND1 (GeneID 595) | 1 | 0.985 | 9.9 | 8.6 | inactive |
| CCND1 (GeneID 595) | 2 | -1.41 | -6.96 | 1.4 | inactive |
| CCND1 (GeneID 595) | 3 | -1.02 | -4.18 | 3.29 | inactive |
| HMGN2P16 (GeneID 728234) | 1 | 1.63 | 14.4 | 9.01 | inactive |
| HMGN2P16 (GeneID 728234) | 2 | -0.595 | -1.22 | 2.44 | inactive |
| HMGN2P16 (GeneID 728234) | 3 | -1.11 | -4.81 | 1.78 | inactive |
| IFT172 (GeneID 26160) | 1 | 2.69 | 21.9 | 12.6 | inactive |
| IFT172 (GeneID 26160) | 2 | 1.72 | 15 | 10.5 | inactive |
| IFT172 (GeneID 26160) | 3 | 0.797 | 8.57 | 6.29 | inactive |
| SLC22A13 (GeneID 9390) | 1 | 0.538 | 6.75 | 7.76 | inactive |
| SLC22A13 (GeneID 9390) | 2 | 2.61 | 21.3 | 13.4 | inactive |
| SLC22A13 (GeneID 9390) | 3 | 0.597 | 7.17 | 5.65 | inactive |

Targets above whose gene name begins with I or i:
| Target gene | reagent | G2 robust z-score | G2 cells, % of GMNN control | raw share of cells in G2 (%) | Call |
| --- | --- | --- | --- | --- | --- |
| IER3IP1 (GeneID 51124) | 1 | 0.778 | 8.44 | 7.08 | inactive |
| IER3IP1 (GeneID 51124) | 2 | -0.603 | -1.28 | 4.07 | inactive |
| IER3IP1 (GeneID 51124) | 3 | 3.68 | 28.8 | 12.3 | inactive |
| IFT172 (GeneID 26160) | 1 | 2.69 | 21.9 | 12.6 | inactive |
| IFT172 (GeneID 26160) | 2 | 1.72 | 15 | 10.5 | inactive |
| IFT172 (GeneID 26160) | 3 | 0.797 | 8.57 | 6.29 | inactive |
